{"source": "PubChem BioAssay AID1508597 (Cure First, 2020)", "test": "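Knock-downs altering ovarian cancer cell survival with or without PARP inhibitor rucaparib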 (primary screen)", "system": "human ovarian carcinoma lines grown from tumours: OCI-P5x (papillary serous) and OCI-C5x (clear cell)", "reagents": "siRNA pool against human genes, 1.25 pmol siRNA per well", "timing": "72 h or 96 h, depending on the cell culture", "challenge": "rucaparib 20 µM (about IC30) or vehicle, present until read-out", "rucaparib or vehicle": "Rucaparib", "cell line": "OCI-C5x (clear cell)", "measured": "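ATP luminescence measured at 72 or 96 h according to the culture, then normalised and expressed as percent viability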", "reading the numbers": "viability, normalised: higher = more viable cells remaining", "rule for the call": "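Active when normalised viability falls below 80 percent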", "meaning of the calls": "active = viability under 80%; inactive = viability 80% or more", "note": "Shown is a random part of the about 2,100 reagents, in one setting of the screen. 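Calls flag viability under 80% in either arm, not effects specific to rucaparib; the reference for percent is not stated.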 Not stated in the record: the 100% reference."}
{"target": "MED9 (GeneID 55090)", "technical replicate": "1", "viability, normalised (%)": 39.8, "Outcome": "active"}
{"target": "MED9 (GeneID 55090)", "technical replicate": "2", "viability, normalised (%)": 39.9, "Outcome": "active"}
{"target": "MED9 (GeneID 55090)", "technical replicate": "3", "viability, normalised (%)": 22.3, "Outcome": "active"}
{"target": "BANP (GeneID 54971)", "technical replicate": "1", "viability, normalised (%)": 59.8, "Outcome": "active"}
{"target": "BANP (GeneID 54971)", "technical replicate": "2", "viability, normalised (%)": 40.9, "Outcome": "active"}
{"target": "BANP (GeneID 54971)", "technical replicate": "3", "viability, normalised (%)": 46.1, "Outcome": "active"}

No new results follow: 2 of the entries above.
{"target": "BANP (GeneID 54971)", "technical replicate": "1", "viability, normalised (%)": 59.8, "Outcome": "active"}
{"target": "BANP (GeneID 54971)", "technical replicate": "2", "viability, normalised (%)": 40.9, "Outcome": "active"}

Continued:
{"target": "SMAD2 (GeneID 4087)", "technical replicate": "1", "viability, normalised (%)": 48, "Outcome": "active"}
{"target": "SMAD2 (GeneID 4087)", "technical replicate": "2", "viability, normalised (%)": 37.9, "Outcome": "active"}
{"target": "SMAD2 (GeneID 4087)", "technical replicate": "3", "viability, normalised (%)": 48.2, "Outcome": "active"}
{"target": "BNIP3 (GeneID 664)", "technical replicate": "1", "viability, normalised (%)": 65.9, "Outcome": "active"}
{"target": "BNIP3 (GeneID 664)", "technical replicate": "2", "viability, normalised (%)": 53.3, "Outcome": "active"}
{"target": "BNIP3 (GeneID 664)", "technical replicate": "3", "viability, normalised (%)": 42.9, "Outcome": "active"}
